# Results: PubChem BioAssay AID2061319 (National Center for Advancing Translational Sciences (NCATS), 2025)
# The shares of active, inactive and inconclusive entries below differ from those in the screen. A potency beside an inconclusive call is a rough fit, not a confirmed value. Activity calls are given as the source filed them. Calls come from the whole dose curve; as a rule, active = well fitted inhibition curve with a large enough effect; inconclusive = small, poorly fitted or top-dose-only effect; inactive = flat fitted curve, though single readings scatter.
# Assay: Identification of antibody-drug conjugate (ADC) payloads which are substrates of ATP-binding cassette drug efflux transporters: ABCG2-H460-MX20 cell line with Ko143
# Settings: H460-MX20 (ABCG2) + Ko143, CellTiter-Glo viability, 48 h; series mostly up to 28.7 µM
# Source text: Antibody-drug conjugates (ADCs) feature an antibody recognizing a specific protein joined to a potent toxic payload. Numerous antibody-drug conjugates have received FDA approval; however, clinical resistance arises. Resistance mechanisms include decreased expression or mutation of the antibody target, impaired payload release, or increased expression of ATP-binding cassette (ABC) efflux transporters associated with multidrug resistance. We therefore sought to characterize the interaction of ABC multidrug transporters with ADC payloads. We performed a high-throughput screen with 27 common ADC payloads using cells lines expressing ABC transporters P-glycoprotein (P-gp, encoded by ABCB1) or ABCG2 (encoded by ABCG2). Confirmatory assays were also performed using cells transfected to express P-gp, ABCG2, or MRP1 (encoded by ABCC1). Several commonly used ADC payloads were substrates of P-gp, including calicheamicin gamma1, monomethyl auristatin E, DM1, and DM4. All the pyrrolobenzodiazepines tested - SJG136, SGD-1882, SG2057, and SG3199 - were substrates of P-gp, ABCG2, and MRP1. […] These findings highlight the risk of transporter-mediated resistance with certain ADC payloads and underscore the importance of selecting payloads that evade ABC transporter recognition in future ADC development.
# HEK-293 cells were transfected with empty vector (pcDNA) or vector containing the human ABCB1 (MDR-19), ABCG2 (R-5), or ABCC1 gene (MRP1) and were maintained in EMEM with 2 mg/mL G418 added to maintain transporter expression. The HeLa derivative KB-3-1 and the P-gp overexpressing KB-8-5-11 subline were maintained in DMEM; KB-8-5-11 additionally received 100 ng/mL colchicine. H460 parental cells were obtained from the Division of Cancer Treatment and Diagnosis Tumor Repository, National Cancer Institute at Frederick, MD and were cultured in RPMI. The ABCG2 expressing subline H460 MX20 was generated by selecting H460 cells in 20 nM mitoxantrone. Media in all cases was supplemented with 10% FBS and 1% penicillin-streptomycin. We explored 27 common ADC payloads, in two orthogonal, paired cell line sets-a drug selected and transfected set for each transporter--to identify substrates of the ABC transporters P-gp and ABCG2. Compounds were sourced from Levena Biopharma (San Diego, CA), Selleck Chem (Houston, TX), ChemieTek (Indianapolis, IN), or Microsource Discovery Systems (Gaylordsville, CT). Screening was performed as previously described. Briefly, cells were plated at a density of 500 cells/well in 1536 well plates with compounds added using a 1536-head pin tool (Kalypsys, San Diego CA). Cells were incubated with cytotoxic drugs and processed with CellTiter Glo reagent (Promega, Madison, WI) to determine viability after 48 hours. P-gp substrates were identified by comparing compound activity between paired sets of low-expressing (sensitive) and over-expressing (resistant) cell lines.
row,SMILES,Potency
1,CC[C@]1(O)CC2CN(CCc3c([nH]c4ccccc34)[C@@](C(=O)OC)(c3cc4c(cc3OC)N(C)[C@H]3[C@@](O)(C(=O)OC)[C@H](OC(C)=O)[C@]5(CC)C=CCN6CC[C@]43[C@@H]65)C2)C1 (stereo partly drawn),"inconclusive: 3360 nM [inhibitor, partial curve]"
2,Cc1nc(Nc2ncc(C(=O)Nc3c(C)cccc3Cl)s2)cc(N2CCN(CCO)CC2)n1,"inconclusive: 13400 nM [inhibitor, partial curve]"
3,CC(C)(C)OC(=O)Nc1ccc2[nH]c(C(=O)N3C[C@@H](CCl)c4c3cc(O)c3ccccc43)cc2c1,active: 6.7 nM
4,CC[C@H](C)[C@@H]([C@H](N)CC(=O)N1CCC[C@H]1[C@H](OC)[C@@H](C)C(=O)N[C@@H](Cc1ccccc1)c1nccs1)N(C)C(=O)[C@@H](NC(=O)[C@@H](NC)C(C)C)C(C)C,inactive
5,COc1cc2cc(c1Cl)N(C)C(=O)C[C@H](O)[C@]1(C)O[C@H]1[C@H](C)C1C[C@@](O)(NC(=O)O1)[C@H](OC)/C=C/C=C(\C)C2,"inconclusive: 10600 nM [inhibitor, partial curve]"
6,CC[C@H](C)[C@@H]([C@H](N)CC(=O)N1CCC[C@H]1[C@H](OC)[C@@H](C)C(=O)N[C@@H](Cc1ccccc1)c1nccs1)N(C)C(=O)[C@@H](NC(=O)[C@H](C(C)C)N(C)C)C(C)C,"inconclusive: 5.3 nM [inhibitor, full curve]"
7,COc1ccc(C2=CN3C(=O)c4cc(OC)c(OCCCOc5cc6c(cc5OC)C(=O)N5C=C(c7ccc(N)cc7)C[C@@H]5C=N6)cc4N=C[C@H]3C2)cc1,"inconclusive: 106 nM [inhibitor, full curve]"
8,CCN(C(C)=O)[C@H]1CO[C@@H](O[C@H]2[C@H](O[C@H]3C#C/C=C\C#C[C@]4(O)CC(=O)C(NC(=O)OC)=C3/C4=C\CSSSC)O[C@H](C)[C@@H](NO[C@H]3C[C@H](O)[C@H](SC(=O)c4c(C)c(I)c(O[C@@H]5O[C@@H](C)[C@H](O)[C@@H](OC)[C@H]5O)c(OC)c4OC)[C@@H](C)O3)[C@@H]2O)C[C@@H]1OC,active: 13.4 nM
